For two molecules, binding results are on record in publication PMC3024409.

These are yes or no findings as the source states them, for the method shown. Sequences can lack the tags named with a protein.

Experiment [1] has as its target (MBP-)Rps0 (S. cerevisiae), P32905. Kind of experiment: condition: 5 µM untagged protein, 3 µM MBP-tagged protein; pull-down; 3 µM MBP-tagged bait and 5 µM untagged prey in 50 mM HEPES pH 7.5, 150 mM KCl; 10 min at room temperature, 1 h at 4°C with amylose resin; washed, eluted with 20 mM maltose; SDS-PAGE, Coomassie; both purified. The note with it: remark: other sources report otherwise.

In experiment [2] the target is (MBP-)Rps29 (S. cerevisiae). Described as above.

B1: Tsr1 (untagged), Q07381 1-788 (protein)
chain: MAGHSHRSSLKNGHKSYKSKHASKGALKRLYKGKVEKEPVGTGKPDKQVSKLQRKNKAKQLRAQRILDSIENRKLFEGKNGAAKIITIVPLVNDLDPLDILYKLLKCADDEGIMVQEVDSKRIFNVHIKKFKSNLKIIIPDMTNFLNILDCAKVADFVVFGLSGVQEVDEEFGEQIIRALELQGIASYIGVISNLSAVHEKEKFQLDVKQSLESYFKHFFPSEERVYNLEKNSDALNVLRTLCQRLPRSINWRDNRGYVVADFVDFVETSPDSGDLVIEGTVRGIGFNANRLVHIPDFGDFQLNKIEKISESSQKRKIIKEKATDSLSLELDLQTVFESNMNRDTLDEYAPEGTEDWSDYDEDFEYDGLTTARYDDHGFLPGREQTSKKAAVPKGTSDYQAKWYLDDVIDANEEEEAEQTNGKDETMMEIDDEMMVEQDNEEVAGDEEYDIEDNEGFEELSPEEEERQLREFRDMEKEDREFPDEIELEPSESAIERLKRYRGLKNLYNCDWQVDEKDPSSPAEWKRLLRIGNYKNTKNRIIKETKNEAQAIAGDRIRMFIRFPKFLLEKIQDPKQLLFAVYGLLLHEHKNAVVNFSLQRWEQYDKPVPSQEPIVVQYGVRRYTIQPLFSQGSNSPNNVHKYERFLHPDTVSVATCIAPVDFTQSPAIFFKPSPTDAKNIELIGHGTFLNADHSRILAKRAILTGHPFRFHKTVVTVRYMFFRPEDVEWFKSIPLFTKSGRSGFIKESLGTHGYFKATFDGKLSAQDVVAMSLYKRMWPMPSLPWNGM
Regarding B1, in experiment [1], the binding entry is recorded as “no binding”.

B2: Tsr1 (untagged) (protein, UniProt Q07381 1-788)
chain: MAGHSHRSSLKNGHKSYKSKHASKGALKRLYKGKVEKEPVGTGKPDKQVSKLQRKNKAKQLRAQRILDSIENRKLFEGKNGAAKIITIVPLVNDLDPLDILYKLLKCADDEGIMVQEVDSKRIFNVHIKKFKSNLKIIIPDMTNFLNILDCAKVADFVVFGLSGVQEVDEEFGEQIIRALELQGIASYIGVISNLSAVHEKEKFQLDVKQSLESYFKHFFPSEERVYNLEKNSDALNVLRTLCQRLPRSINWRDNRGYVVADFVDFVETSPDSGDLVIEGTVRGIGFNANRLVHIPDFGDFQLNKIEKISESSQKRKIIKEKATDSLSLELDLQTVFESNMNRDTLDEYAPEGTEDWSDYDEDFEYDGLTTARYDDHGFLPGREQTSKKAAVPKGTSDYQAKWYLDDVIDANEEEEAEQTNGKDETMMEIDDEMMVEQDNEEVAGDEEYDIEDNEGFEELSPEEEERQLREFRDMEKEDREFPDEIELEPSESAIERLKRYRGLKNLYNCDWQVDEKDPSSPAEWKRLLRIGNYKNTKNRIIKETKNEAQAIAGDRIRMFIRFPKFLLEKIQDPKQLLFAVYGLLLHEHKNAVVNFSLQRWEQYDKPVPSQEPIVVQYGVRRYTIQPLFSQGSNSPNNVHKYERFLHPDTVSVATCIAPVDFTQSPAIFFKPSPTDAKNIELIGHGTFLNADHSRILAKRAILTGHPFRFHKTVVTVRYMFFRPEDVEWFKSIPLFTKSGRSGFIKESLGTHGYFKATFDGKLSAQDVVAMSLYKRMWPMPSLPWNGM
For B2, in experiment [2], the binding entry is reported as “no binding”.
